Laboratory results: paper PMC6612642
These are yes or no findings as the source states them, for the method shown. In cells and extracts the contact can be indirect. Some results given as binding are weak or reduced against the parent protein; the word gives no strength.

Protein sequences, listed by entry. Tags and fused reporters are not part of them.
UniProt P23804: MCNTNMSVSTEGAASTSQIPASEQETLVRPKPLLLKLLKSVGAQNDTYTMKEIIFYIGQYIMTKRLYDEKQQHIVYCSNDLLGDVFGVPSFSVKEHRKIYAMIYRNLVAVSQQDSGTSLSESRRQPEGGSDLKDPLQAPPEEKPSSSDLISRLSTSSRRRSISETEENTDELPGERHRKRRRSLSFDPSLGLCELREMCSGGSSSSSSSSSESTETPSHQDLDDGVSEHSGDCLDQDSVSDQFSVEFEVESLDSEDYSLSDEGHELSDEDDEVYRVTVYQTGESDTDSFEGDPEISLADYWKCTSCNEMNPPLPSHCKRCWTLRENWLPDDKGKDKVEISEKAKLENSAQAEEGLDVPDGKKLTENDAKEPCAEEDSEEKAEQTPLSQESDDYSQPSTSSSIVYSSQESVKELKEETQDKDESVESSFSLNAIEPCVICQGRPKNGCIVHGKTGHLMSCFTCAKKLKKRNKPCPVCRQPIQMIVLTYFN
UniProt Q9WUD1: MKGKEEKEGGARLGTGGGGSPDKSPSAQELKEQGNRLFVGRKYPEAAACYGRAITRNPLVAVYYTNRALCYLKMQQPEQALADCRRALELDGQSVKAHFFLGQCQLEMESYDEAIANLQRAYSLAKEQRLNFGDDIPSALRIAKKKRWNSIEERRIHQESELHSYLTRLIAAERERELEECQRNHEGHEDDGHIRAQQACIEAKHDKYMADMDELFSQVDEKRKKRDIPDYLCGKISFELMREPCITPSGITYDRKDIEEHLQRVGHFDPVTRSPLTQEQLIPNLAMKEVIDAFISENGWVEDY
UniProt Q01815: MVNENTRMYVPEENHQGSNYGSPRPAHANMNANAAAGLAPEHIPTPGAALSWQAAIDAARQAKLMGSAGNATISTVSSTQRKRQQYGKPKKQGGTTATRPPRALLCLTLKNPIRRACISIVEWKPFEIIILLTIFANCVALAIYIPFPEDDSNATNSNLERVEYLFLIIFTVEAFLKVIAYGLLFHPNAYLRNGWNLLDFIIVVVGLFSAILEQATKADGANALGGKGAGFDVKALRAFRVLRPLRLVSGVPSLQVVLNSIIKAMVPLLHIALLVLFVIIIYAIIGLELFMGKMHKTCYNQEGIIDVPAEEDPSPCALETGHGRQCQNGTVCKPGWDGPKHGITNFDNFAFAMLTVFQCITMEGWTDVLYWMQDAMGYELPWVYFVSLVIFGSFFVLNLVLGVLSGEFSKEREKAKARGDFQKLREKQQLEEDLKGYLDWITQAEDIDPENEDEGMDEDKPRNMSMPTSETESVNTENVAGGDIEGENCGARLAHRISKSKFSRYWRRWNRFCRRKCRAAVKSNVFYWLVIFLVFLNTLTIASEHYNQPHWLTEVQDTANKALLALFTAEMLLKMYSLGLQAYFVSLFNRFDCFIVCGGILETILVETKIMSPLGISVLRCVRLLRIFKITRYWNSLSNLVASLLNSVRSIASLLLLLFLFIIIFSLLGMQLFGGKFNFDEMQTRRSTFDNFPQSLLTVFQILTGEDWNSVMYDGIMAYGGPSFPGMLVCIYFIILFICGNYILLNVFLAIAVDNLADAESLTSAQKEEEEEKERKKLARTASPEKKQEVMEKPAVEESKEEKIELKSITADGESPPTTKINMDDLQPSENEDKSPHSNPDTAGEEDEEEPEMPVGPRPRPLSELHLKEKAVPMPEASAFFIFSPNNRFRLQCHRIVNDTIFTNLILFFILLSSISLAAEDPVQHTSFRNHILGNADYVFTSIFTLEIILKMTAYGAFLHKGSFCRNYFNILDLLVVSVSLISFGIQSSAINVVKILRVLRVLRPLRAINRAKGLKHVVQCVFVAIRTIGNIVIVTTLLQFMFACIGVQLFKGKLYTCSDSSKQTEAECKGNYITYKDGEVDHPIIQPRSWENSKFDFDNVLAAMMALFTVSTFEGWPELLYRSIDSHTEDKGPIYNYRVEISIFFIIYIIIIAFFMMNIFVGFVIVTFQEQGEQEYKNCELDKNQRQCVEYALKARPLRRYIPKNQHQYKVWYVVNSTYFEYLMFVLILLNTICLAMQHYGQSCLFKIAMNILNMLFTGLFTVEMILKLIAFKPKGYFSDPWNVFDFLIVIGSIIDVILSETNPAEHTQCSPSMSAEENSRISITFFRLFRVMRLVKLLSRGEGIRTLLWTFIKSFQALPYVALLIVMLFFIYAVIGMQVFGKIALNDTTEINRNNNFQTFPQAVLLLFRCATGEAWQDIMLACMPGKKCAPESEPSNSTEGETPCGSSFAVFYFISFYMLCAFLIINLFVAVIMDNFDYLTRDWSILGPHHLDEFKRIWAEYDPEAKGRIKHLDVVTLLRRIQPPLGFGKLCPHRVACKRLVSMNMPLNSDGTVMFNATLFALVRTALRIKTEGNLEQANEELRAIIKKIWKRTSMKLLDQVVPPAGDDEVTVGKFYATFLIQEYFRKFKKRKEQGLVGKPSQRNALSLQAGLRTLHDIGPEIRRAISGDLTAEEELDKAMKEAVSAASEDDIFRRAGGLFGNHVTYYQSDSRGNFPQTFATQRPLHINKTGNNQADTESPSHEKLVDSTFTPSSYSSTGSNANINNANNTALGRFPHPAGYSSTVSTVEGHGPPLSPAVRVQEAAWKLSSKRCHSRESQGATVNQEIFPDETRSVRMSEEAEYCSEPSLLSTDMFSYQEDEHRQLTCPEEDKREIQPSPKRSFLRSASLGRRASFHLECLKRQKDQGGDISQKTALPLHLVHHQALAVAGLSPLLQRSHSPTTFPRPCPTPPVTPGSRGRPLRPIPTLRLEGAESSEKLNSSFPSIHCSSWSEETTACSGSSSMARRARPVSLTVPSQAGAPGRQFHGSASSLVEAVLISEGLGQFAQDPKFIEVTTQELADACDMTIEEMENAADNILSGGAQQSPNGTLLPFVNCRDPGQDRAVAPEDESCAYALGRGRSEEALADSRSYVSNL
UniProt P19785: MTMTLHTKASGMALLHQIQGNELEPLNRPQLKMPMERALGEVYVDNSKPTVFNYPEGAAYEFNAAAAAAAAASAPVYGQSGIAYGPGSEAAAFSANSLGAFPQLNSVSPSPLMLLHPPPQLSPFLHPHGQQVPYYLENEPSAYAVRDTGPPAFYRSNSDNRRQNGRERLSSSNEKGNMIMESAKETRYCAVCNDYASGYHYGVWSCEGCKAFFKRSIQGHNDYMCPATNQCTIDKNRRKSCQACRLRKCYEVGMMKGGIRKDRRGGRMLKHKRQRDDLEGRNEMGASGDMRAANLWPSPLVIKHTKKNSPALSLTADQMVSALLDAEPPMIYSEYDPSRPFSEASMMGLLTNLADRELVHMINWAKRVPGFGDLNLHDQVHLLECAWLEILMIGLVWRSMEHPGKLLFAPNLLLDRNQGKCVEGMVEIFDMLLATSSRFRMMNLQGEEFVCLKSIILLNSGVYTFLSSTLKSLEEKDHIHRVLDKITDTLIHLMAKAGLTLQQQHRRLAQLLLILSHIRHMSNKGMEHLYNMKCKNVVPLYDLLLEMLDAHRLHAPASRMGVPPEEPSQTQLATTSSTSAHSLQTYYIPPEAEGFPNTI

How the values were obtained:
[1] = target: E3 ligase Mdm2 (double minute 2 protein) (mouse (endogenous in HT22 and in mouse hippocampus)) (UniProt P23804); test: co-IP; hippocampal extracts of OVX APP/PS1 mice, immunoprecipitated by Mdm2 antibody, protein A agarose overnight at 4°C; mice with or without PPT treatment
[2] = target: CHIP (STIP1 homology and U-Box-containing protein 1, STUB1) (UniProt Q9WUD1); test: co-IP; HT22 cell extracts (0.5 mg) pre-cleared with protein A agarose, antibody 1 hr, protein A agarose overnight at 4°C; control IgG; cells with or without PPT (Figure 3b)
[3] = target: E3 ligase Mdm2 (double minute 2 protein) (mouse (endogenous in HT22 and in mouse hippocampus)) (UniProt P23804); test: as above
[4] = target: Cav1.2, pore-forming subunit of L-type voltage-gated calcium channel (LTCC) (mouse (endogenous in HT22 and in mouse hippocampus)) (UniProt Q01815); test: as above

binding [1] | binding [2] | binding [3] | Substance | binding [4]
binds | no binding | binds | Cav1.2, pore-forming subunit of L-type voltage-gated calcium channel (LTCC) (from UniProt Q01815 1-2139) | –
– | – | – | E3 ligase Mdm2 (double minute 2 protein) (from UniProt P23804 1-489) (enzyme) | binds
binds | – | binds | Estrogen receptor α (from UniProt P19785 1-599) | –
